# Assay results reported in US11192888B2 (priority 2017, dated 2021).
# Experiment: general procedure: peptide synthesis; 2-chlorotrityl chloride polystyrene resin
# Settings: cyclisation step
Substance,cyclisation yield (on crude linear peptide),cyclisation yield
Cyclo[D-Ser-Thz-Trp-Trp(4-C1)-Gly-D-Ala-Dha-Sar],4%,–
Cyclo[D-Ala-Thz-Trp-Trp(4-Br)-Gly-D-Ala-Dha-Sar],7%,–
"Cyclo[D-Ala-Thz-Trp-Trp(4,5-C1)-Gly-D-Ala-Dha-Sar]",2%,–
Cyclo[D-Ala-Thz-Trp-Trp(4-CF3)-Gly-D-Ala-Dha-Sar],6%,–
Cyclo[D-Ala-Thz-Trp-Trp(4-Br)-Gly-D-Ala-Dhl-Sar],35%,–
Cyclo[D-Ser(OMe)-Thz-Trp-Trp(4-Br)-Gly-D-Ala-Dha-Sar],6%,–
Cyclo[D-Ala-Thz-Trp-Trp(4-Cl)-Gly-D-Ala-Thr-Sar],14%,–
Cyclo[D-Ala-Thz-Trp-Trp(4-Br)-Gly-D-Ala-Dhp-Sar],35%,–
Cyclo[D-Ala-Thz-Trp-Trp(4-Cl)-Gly-D-Ala-Dhb-Sar],5%,–
Cyclo[D-Ala-Thz-Trp-Trp(4-F)-Gly-D-Ala-Dha-Sar],2%,–
Cyclo(D-Ala-D-Thiazole-L-Trp-L-Trp-Gly-D-Ala-Dha-Sar),–,7% yield
Cyclo[D-Ala-Thz-Trp-Trp(4-C1)-Gly-D-Ala-Dha-Sar],5%,–
Cyclo[D-Ser(OMe)-Thz-Trp-Trp(4-Br)-Gly-D-Ala-Dhb-Sar],19%,–
Cyclo[D-Ala-Thz-Trp-Trp(4-Br)-Gly-D-Ala-Dhb-Sar],35%,–
Cyclo[D-Ala-Thz-Trp-Trp(4-MeO)-Gly-D-Ala-Dha-Sar],11%,–
Cyclo[D-Ala-Thz-Trp-Trp(4-Br)-Gly-D-Ala-Dhv-Sar],42%,–
